# Data: the supplement of paper PMC8975748
# Structures can show the parent of a compound that is named as a salt. ± gives the standard deviation of the averaged measurements. This is one part of the list. These are raw signals, not scaled to a control.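 One yeast strain harboring four plasmids, each bearing a fluorescent protein plus an amino-acid or uracil synthesis gene, founds the community. Random loss of plasmids produces mixed prototroph and auxotroph subpopulations. Cells were fixed, then counted with automated confocal fluorescence imaging, with DMSO-treated wells as vehicle reference.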
# Tested on: Saccharomyces cerevisiae BY4741 SeMeCo community
# Test: imaged cell count per well (cells); higher = more cells
# Settings: 10 µM; 24 h; SM minimal medium
# Procedure: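 Same SeMeCo high-content imaging drug screen: Selleck FDA-approved drugs at 10 µM, 24 h in SM medium, 384-well plates, 3 replicates.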
row,SMILES,imaged cell count per well
1,Oc1ccc(Cl)c2cccnc12 [Cloxiquine],759 ± 220
2,CCN(CC)CCOc1ccc(C(=C(Cl)c2ccccc2)c2ccccc2)cc1 [Clomifene citrate],23500 ± 4000
3,C(=C\c1ccccc1)/CN1CCN(C(c2ccccc2)c2ccccc2)CC1 [Cinnarizine],26000 ± 3300
4,Cn1c([N+](=O)[O-])cnc1COC(N)=O [Ronidazole],25000 ± 1000
5,CC/C=C(\C(=O)N[C@@H]1C(=O)N2C(C(=O)OCOC(=O)C(C)(C)C)=C(COC(N)=O)CS[C@H]12)c1csc(N)n1 [Cefcapene Pivoxil Hydrochloride],23700 ± 12000
6,NC(=N\CCCCCC/N=C(N)/N=C(\N)Nc1ccc(Cl)cc1)/N=C(\N)Nc1ccc(Cl)cc1 [Chlorhexidine diacetate],25700 ± 8300
7,NNc1nncc2ccccc12 [Hydralazine HCl],23900 ± 3500
8,C[C@]12CC[C@@H]3c4ccc(OC(=O)c5ccccc5)cc4CC[C@H]3[C@@H]1CC[C@@H]2O [Estradiol Benzoate],24200 ± 7600
9,COCCCN1CCC(NC(=O)c2cc(Cl)c(N)c3c2OCC3)CC1 [Prucalopride],16200 ± 6700
10,CN1CC(=O)N2[C@H](c3ccc4c(c3)OCO4)c3[nH]c4ccccc4c3C[C@@H]2C1=O [Tadalafil],27100 ± 2900
11,CC(=O)[C@H]1CC[C@H]2[C@@H]3CCC4=CC(=O)CC[C@]4(C)[C@H]3CC[C@]12C [Progesterone],22900 ± 3200
12,Cc1cc2c(s1)Nc1ccccc1N=C2N1CCN(C)CC1 [Olanzapine],22400 ± 710
13,CCN(Cc1ccncc1)C(=O)C(CO)c1ccccc1 (stereo not drawn) [Tropicamide],23000 ± 3900
